According to publication PMC6904456:
For at least one entry, the source does not settle the construct or the ends of the probe. At least one verdict was read from the data and is not stated in words by the source.

Tested on: Thrombin (THR)
Assay: immunochemiluminescence on flat gold
Conditions: 1-200 nM thrombin, buffer; 5' BiotinTEG; Immobilization in 10 mM phosphate, 138 mM NaCl, 2.7 mM KCl, pH 7.4; commercial protein; single-stranded DNA

AGTCCGTGGTAGGGCAGGTTGGGGTGACT [TBA29 (biotin-TBA29 thrombin aptamer)]
binding result: binds
